Measurements reported in PubChem BioAssay AID504786 (Drosophila RNAi Screening Center, 2011).
In all, the deposit lists about 21,000 reagents; below is an unselected part of those with a known target gene and a result. 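Primary screen; positive scores mean lost reporter signal, so the sign may be inverted from the usual convention.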 Reagents against one gene are numbered here. Names joined by + are all predicted targets of the reagent.

Test: 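Knock-downs reducing HIF reporter induction by the iron chelator DFO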 (primary screen)
Cell system: Drosophila S2 cells with a stable HIF luciferase reporter
Reagents: long dsRNA against Drosophila genes, about 0.2 µg dsRNA per well of a 384-well plate
Duration: three days of knock-down, then 20 h of DFO before reading
Conditions: desferrioxamine (DFO) at 100 µM, an iron chelator that mimics hypoxia, for 20 h
Measurement: 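HIF reporter luminescence in cells given 100 µM DFO for 20 h, using the mouse ldh-a hypoxia-response element, scored as per-plate z-scores; higher means greater loss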
Reading the numbers: z-score: higher = stronger loss of HIF reporter signal

Gene,reagent no.,"z-score, replicate 1","z-score, replicate 2","z-score, replicate 3","z-score, replicate 4"
CG4036,1,-0.3,-0.9,,
wde (windei),1,0.6,1.3,,
Rim (Rab3 interacting molecule),1,-1.1,0.2,,
Rim (Rab3 interacting molecule),2,1,-0.5,,
Rim (Rab3 interacting molecule),3,-0.2,-0.5,,
Rim (Rab3 interacting molecule),4,-0.5,-0.2,,
Or63a (Odorant receptor 63a),1,-0.4,-0.7,,
lush,1,-0.3,-0.2,,
CG13159,1,-0.2,-0.2,,
TyrRII (Tyramine receptor II),1,0.3,0.4,,
CanA-14F (Calcineurin A at 14F),1,0.6,0.5,,
Ldsdh1 (Lipid droplet subset dehydrogenase 1),1,-0.3,0,,
mbo (members only),1,0.2,0.3,,
mTTF (mitochondrial transcription termination factor),1,0.2,-0.4,,
O-fut2 (O-fucosyltransferase 2),1,-0.1,-0.3,,
wbl (windbeutel),1,-0.2,0.2,,
CG9928,1,-0.3,-0.1,,
Wnt5 (Wnt oncogene analog 5),1,-0.1,0.1,,
emc (extra macrochaetae),1,1,0.7,,
Irk1 (Inwardly rectifying potassium channel 1),1,-0.2,-0.1,,
Rab21,1,-0.4,-0.3,,
Polr3C (RNA polymerase III subunit C),1,0.9,0.9,,
l(2)efl (lethal (2) essential for life),1,-0.1,-0.4,,
pdm3 (pou domain motif 3),1,-0.3,-0.7,,
pdm3 (pou domain motif 3),2,-0.3,-0.2,,
pgc (polar granule component),1,-0.1,-0.1,,
CG4456 + Hsp22,1,-0.3,0,,
CG4456 + Hsp22,2,-0.2,-0.6,,
TwdlH (TweedleH),1,0,1.1,,
CG7551,1,-0.1,0.1,,
Ir67a (Ionotropic receptor 67a),1,-0.3,-0.5,,
CG6791,1,-0.2,-0.5,,
Pldn (Pallidin),1,-0.3,-0.4,,
Adgf-E (Adenosine deaminase-related growth factor E),1,-0.2,-0.5,,
HPS1 (Hermansky-Pudlak Syndrome 1),1,-0.2,-0.3,,
Dhod (Dihydroorotate dehydrogenase),1,-0.2,-0.3,,
Nhe3 (Na[+]/H[+] hydrogen exchanger 3),1,-0.3,-0.3,,
fs(2)ltoPP43 (female sterile (2) ltoPP43),1,-0.4,-0.5,,
CG6441,1,-0.3,-0.4,,
CG34454,1,-0.2,-0.1,,

Next part, starting with the last 9 of the part before.
Gene,reagent no.,"z-score, replicate 1","z-score, replicate 2","z-score, replicate 3","z-score, replicate 4"
CG6791,1,-0.2,-0.5,,
Pldn (Pallidin),1,-0.3,-0.4,,
Adgf-E (Adenosine deaminase-related growth factor E),1,-0.2,-0.5,,
HPS1 (Hermansky-Pudlak Syndrome 1),1,-0.2,-0.3,,
Dhod (Dihydroorotate dehydrogenase),1,-0.2,-0.3,,
Nhe3 (Na[+]/H[+] hydrogen exchanger 3),1,-0.3,-0.3,,
fs(2)ltoPP43 (female sterile (2) ltoPP43),1,-0.4,-0.5,,
CG6441,1,-0.3,-0.4,,
CG34454,1,-0.2,-0.1,,
CG34376,1,-0.1,-0.9,,
CG34376,2,0.7,-0.6,,
CG34376,3,0.5,0,,
gro (groucho),1,-0.4,-0.1,,
osk (oskar),1,-0.4,-0.4,,
CG3348,1,-0.3,0.2,,
Cpr97Ea (Cuticular protein 97Ea),1,-0.4,-0.4,,
Mfap1 (Microfibril-associated protein 1),1,-0.2,-0.4,,
Dgkepsilon (Diacyl glycerol kinase epsilon),1,-0.4,-0.4,,
Sik2 (Salt-inducible kinase 2),1,-0.2,-0.6,,
Inx7 (Innexin 7),1,-0.3,-0.6,,
"SmydA-9 (SET and MYND domain containing, arthropod-specific, member 9)",1,-0.2,0.1,,
CG17839,1,-0.2,0,,
CG17839,2,-0.4,-0.2,,
CG16790,1,-0.4,-0.7,,
CG30338,1,0,0,,
CG34409,1,-0.2,-0.3,,
CG4896,1,-0.3,-0.3,,
Vmat (Vesicular monoamine transporter),1,-0.4,-0.8,,
Vmat (Vesicular monoamine transporter),2,-0.3,-0.4,,
CG17658,1,-0.2,0,,
CG3349,1,-0.2,2.2,,
Snx21 (Sorting nexin 21),1,-0.3,-0.4,,
Pex2 (Peroxin 2),1,-0.2,-0.3,,
CG31525,1,-0.3,0.6,,
CG33322,1,-0.3,-0.3,,
CG9747,1,-0.3,0.8,-0.3,0.4
CG12009,1,-0.2,0,,
Rbp1 (RNA-binding protein 1),1,-0.4,-0.1,,
CG11158,1,-0.1,0.1,,
RhoGAP71E (Rho GTPase activating protein at 71E),1,-0.1,0,,
RhoGAP71E (Rho GTPase activating protein at 71E),2,1.4,0.4,,
RhoGAP71E (Rho GTPase activating protein at 71E),3,0,0.2,,
tai (taiman),1,-0.3,-1.3,,
tai (taiman),2,-0.3,-0.2,,
resilin,1,-0.1,-0.2,,
resilin,2,-0.3,-0.4,,
CG5645,1,0.1,1.1,,
mura (murashka),1,2.5,0.5,,
mura (murashka),2,4.9,4.2,,
Flad2 (Flavin adenine dinucleotide synthetase 2),1,-0.1,-0.5,,
Ubc87F (Ubiquitin conjugating enzyme 87F),1,-0.4,-0.7,,
CG14424,1,-0.3,-0.8,,
Gclc (Glutamate-cysteine ligase catalytic subunit),1,-0.3,-0.4,,
CG33627,1,0,0,,
nocte (no circadian temperature entrainment),1,-0.6,-1.5,,
Idgf2 (Imaginal disc growth factor 2),1,-0.2,-0.4,,
Cyp311a1 (Cytochrome P450 311a1),1,-0.2,-0.2,,
CG9331,1,0.1,0,,
CG2006 + Spase12,1,-0.5,0.1,,
Nach,1,0,-0.3,,
CG14965,1,-0.1,-0.3,,
Clp (Clipper),1,3,2.9,,
CG14974,1,0.1,-0.3,,
trbl (tribbles),1,-0.3,-0.4,,
CG1504,1,-0.4,-0.7,,
CG32264,1,1.2,-0.5,,
CG32264,2,0.4,0.1,,
CG32264,3,-0.4,-0.2,,
CG32264,4,-0.2,-0.7,1.3,-0.2
CG32264,5,1,-0.6,,
PIG-Wb (Phosphatidylinositol glycan anchor biosynthesis class W b),1,-0.3,-0.2,,
Mov10 (Mov10 RISC complex RNA helicase),1,-0.3,-0.1,,
CG7781,1,-0.2,-0.3,,
CG9286,1,0.3,0.7,,
Smu1 (Smu1 spliceosomal factor),1,0.3,0.9,,
